“And” between values parts separate entries of the source, which are not always exact repeats. Equal values may be shown once. In all, about 400,000 compounds went through this assay and about 5,500 (1.4%) were called active. Inconclusive results, whose numbers are uncertain, are shown with a selection of clear calls. Calls come from the whole dose curve; as a rule, active = well fitted cell-killing curve with a large enough effect; inconclusive = small, poorly fitted or top-dose-only effect, or effect the other way; inactive = flat fitted curve, though single readings scatter. Potencies of inconclusive entries are doubtful fits and often do not repeat.
test: qHTS assay for MDR1-selective chemotherapeutics: Primary screen using the parental adenocarcinoma cell KB-3-1; conditions: KB-3-1 viability, CellTiter-Glo ATP luminescence, 72 h; activity change, negative = cytotoxic: at 46.1 µM (top of the series); note: nearly all actives have a fitted effect of over 60% in size
Method in brief: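 Viability of parental KB-3-1 cells, measured by CellTiter-Glo luminescence, followed a 72 h incubation at 37 °C with pinned compounds in phenol-red-free DMEM containing 10% FBS.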
% is set by controls: 0 for no effect and ±100 for the full control effect; potency is the fitted concentration of half-maximal effect.

Compound	Potency	activity change, negative = cytotoxic
CCCNC(=O)C1(CC2CC(c3ccccc3)=NO2)CCN(C(=O)Cc2ccc(F)cc2)CC1 (stereo not given)	inconclusive: 29.1 µM [cytotoxic, single point]	
Cc1ccc(-n2nc3c(=O)n(C(C)C(=O)NCc4ccc(Cl)cc4)nc(C)c3c2C)cc1 (stereo not given)	active: 8.2 µM	
Cc1ccccc1-n1ncc2c(SCC(=O)NCc3cccs3)ncnc21	active: 5.17 µM	
CCN(C(=O)CN1C(=O)NC2(CCC(C)CC2)C1=O)C1CCCCC1 (stereo not given)		inactive: 0%
Cn1cc(C(=O)C(=O)N2CCCc3ccccc32)c2ccccc21	inconclusive: 29.1 µM [cytotoxic, single point]	
O=C(c1ccc(Cl)cc1)c1ccc(OCC(O)CN2CCCCC2)cc1 (stereo not given)	inconclusive: 29.1 µM [cytotoxic, single point]	
Cc1cccc(C)c1NC(=O)C1(C)CSCC(=O)N1CCCN1CCOCC1 (stereo not given)		inactive: 0.315%
COc1cc(C(=O)NC2CCN(C)CC2)ccc1Nc1ncc2c(n1)N(Cc1ccccc1)CCC(=O)N2C	inconclusive: 8.2 µM [cytotoxic, partial curve, poor fit]	
O=C(c1cccs1)N1CCN(CCCc2ccccc2)CC1		inactive: -9.36%
Cc1cc(C(=O)Cn2nnc3ccccc3c2=O)c(C)n1Cc1cccs1	inconclusive: 29.1 µM [cytotoxic, single point]	
O=[N+]([O-])c1ccc(C=Nc2ccc(Cl)cc2Cl)s1	active: 16.4 µM	
COC(=O)c1sc(NC(=O)/C=C/c2ccc(C)o2)nc1C	inconclusive: 20.6 µM [rising, partial curve, poor fit]	
CCc1cc2c(-c3ccccc3)cc(=O)oc2cc1OC(C)C(C)=O (stereo not given)	inconclusive: 29.1 µM [cytotoxic, single point]	
Cc1ccccc1C(NC(=O)C1CCN(Cc2ccc(Oc3ccccc3)cc2)CC1)c1ccsc1 (stereo not given)	inconclusive: 29.1 µM [cytotoxic, single point]	
O=C(/C=C/c1ccco1)OCc1nnc(-c2ccc(Cl)cc2)o1		inactive: 8.3%
O=C1CN(C(=O)/C=C/c2ccco2)c2ccccc2N1		inactive: 2.26%
Cc1sc2ncnc(OCC(=O)c3ccc(S(=O)(=O)N4CCCC4)cc3)c2c1C	inconclusive: 29.1 µM [cytotoxic, single point]	
Clc1ccc(Nc2ccc3ccccc3n2)cc1	inconclusive: 29.1 µM [cytotoxic, single point]	
O=C(N/N=C/c1ccccc1Br)c1ccc(CSc2cccc3cccnc23)cc1		inactive: 4.39%
O=C(COC(=O)Cc1n[nH]c(=O)c2ccccc12)NNC(=O)c1ccc(Cl)cc1	inconclusive: 8.2 µM [cytotoxic, partial curve, poor fit]	
CC(CCc1ccc(O)cc1)NCCC(c1ccccc1)c1ccccc1 (stereo not given)	inconclusive: 20.6 µM [cytotoxic, partial curve, poor fit]	
Cn1c(=O)n(C)c2cc(NC(=O)c3ccc(F)cc3)c(Br)cc21		inactive: -3%
O=C1/C(=C/c2ccc(C(=O)O)cc2)CCC/C1=C\c1ccc(C(=O)O)cc1		inactive: 13.2%
CC(=O)N1N=C(c2cccc(NS(=O)(=O)c3ccc(C)cc3)c2)CC1c1ccco1 (stereo not given)	inconclusive: 18.4 µM [cytotoxic, single point]	

18 of these compounds in another layout.
Compound,Potency,"activity change, negative = cytotoxic"
Cc1ccc(-n2nc3c(=O)n(C(C)C(=O)NCc4ccc(Cl)cc4)nc(C)c3c2C)cc1 (stereo not given),active: 8.2 µM,
Cc1ccccc1-n1ncc2c(SCC(=O)NCc3cccs3)ncnc21,active: 5.17 µM,
CCN(C(=O)CN1C(=O)NC2(CCC(C)CC2)C1=O)C1CCCCC1 (stereo not given),,inactive: 0%
Cn1cc(C(=O)C(=O)N2CCCc3ccccc32)c2ccccc21,"inconclusive: 29.1 µM [cytotoxic, single point]",
O=C(c1ccc(Cl)cc1)c1ccc(OCC(O)CN2CCCCC2)cc1 (stereo not given),"inconclusive: 29.1 µM [cytotoxic, single point]",
Cc1cccc(C)c1NC(=O)C1(C)CSCC(=O)N1CCCN1CCOCC1 (stereo not given),,inactive: 0.315%
COc1cc(C(=O)NC2CCN(C)CC2)ccc1Nc1ncc2c(n1)N(Cc1ccccc1)CCC(=O)N2C,"inconclusive: 8.2 µM [cytotoxic, partial curve, poor fit]",
O=C(c1cccs1)N1CCN(CCCc2ccccc2)CC1,,inactive: -9.36%
Cc1cc(C(=O)Cn2nnc3ccccc3c2=O)c(C)n1Cc1cccs1,"inconclusive: 29.1 µM [cytotoxic, single point]",
O=[N+]([O-])c1ccc(C=Nc2ccc(Cl)cc2Cl)s1,active: 16.4 µM,
COC(=O)c1sc(NC(=O)/C=C/c2ccc(C)o2)nc1C,"inconclusive: 20.6 µM [rising, partial curve, poor fit]",
CCc1cc2c(-c3ccccc3)cc(=O)oc2cc1OC(C)C(C)=O (stereo not given),"inconclusive: 29.1 µM [cytotoxic, single point]",
Cc1ccccc1C(NC(=O)C1CCN(Cc2ccc(Oc3ccccc3)cc2)CC1)c1ccsc1 (stereo not given),"inconclusive: 29.1 µM [cytotoxic, single point]",
O=C(/C=C/c1ccco1)OCc1nnc(-c2ccc(Cl)cc2)o1,,inactive: 8.3%
O=C1CN(C(=O)/C=C/c2ccco2)c2ccccc2N1,,inactive: 2.26%
Cc1sc2ncnc(OCC(=O)c3ccc(S(=O)(=O)N4CCCC4)cc3)c2c1C,"inconclusive: 29.1 µM [cytotoxic, single point]",
Clc1ccc(Nc2ccc3ccccc3n2)cc1,"inconclusive: 29.1 µM [cytotoxic, single point]",
O=C(N/N=C/c1ccccc1Br)c1ccc(CSc2cccc3cccnc23)cc1,,inactive: 4.39%

Continuation:

Compound	Potency	activity change, negative = cytotoxic
COc1ccccc1N1CCN(S(=O)(=O)c2ccc3c(c2)NC(=O)C(C)S3)CC1 (stereo not given)	inconclusive: 29.1 µM [cytotoxic, single point]	
CC1(C)C2CCC1(CS(=O)(=O)Nc1ccc(S(=O)(=O)N3CCCCC3)cc1)C(=O)C2 (stereo not given)		inactive: -6.67%
CCC(=O)N1CCc2cc(S(=O)(=O)NC(CC(C)C)C(=O)NCc3ccc(C)cc3)ccc21 (stereo not given)		inactive: -0.359%
Cc1ccc(O)c(-c2n[nH]c3c2C(c2ccccc2F)N(Cc2ccco2)C3=O)c1 (stereo not given)		inactive: -6.6%
COC(=O)c1ccccc1NC(=O)C(C)c1ccc([N+](=O)[O-])cc1 (stereo not given)	inconclusive: 29.1 µM [cytotoxic, single point]	
CCN(CC)C(=O)c1[nH]cnc1C(=O)Nc1ccc(OC)cc1	inconclusive: 29.1 µM [cytotoxic, single point]	
Cc1cc2[nH]c(=O)c(=O)[nH]c2cc1S(=O)(=O)Nc1cccc(C(F)(F)F)c1		inactive: 3.78%
O=C(Nc1ccc(OCc2ccccc2)cc1)Nc1ccccc1C(=O)NCCCN1CCOCC1	inconclusive: 29.1 µM [rising, single point]	
Cc1onc(-c2ccccc2Cl)c1C(=O)N1CCC(Cc2ccccc2)CC1	inconclusive: 29.1 µM [cytotoxic, single point]	
Cc1c(OCc2ccccc2)c(=O)ccn1Cc1ccc(F)cc1	inconclusive: 32.6 µM [cytotoxic, single point]	
CC1=Nc2ccccc2N=C(NC(=O)c2ccccc2)C1c1ccc(Cl)cc1 (stereo not given)	inconclusive: 16.4 µM [cytotoxic, partial curve]	
COc1ccc(OC)c(NS(=O)(=O)c2ccc(Br)s2)c1	inconclusive: 29.1 µM [cytotoxic, single point]	
COc1ccc(S(=O)(=O)N2CCN(C(=O)c3cc(-c4ccc(C)cc4)n[nH]3)CC2)cc1		inactive: -9.97%
CCC1=C(OC(=O)N(CC)CC)N2C(=O)OC(=NCCc3c[nH]c4ccccc34)[C@]2(Cc2ccccc2)[C@H]2C1=CC[C@H]1C(=O)N(C)C(=O)[C@H]12	inconclusive: 29.1 µM [cytotoxic, single point]	
O=C(COc1ccc(Cl)cc1)NCCc1csc(-c2cccc(F)c2)n1		inactive: -3.16%
FC(F)(F)c1cc(CCN2CCNC[C@H]2Cc2cccc3ccccc23)cc(C(F)(F)F)c1		inactive: 0%
COc1cc2c(cc1OC)CC(C(=O)NCc1ccccc1)NC2 (stereo not given)		inactive: -0.504%
COc1cccc(C(=O)N(Cc2nc(-c3ccc(C)cc3)no2)C(C)C)c1		inactive: -18.9%
COC(=O)c1ccc(NC(=S)NCCc2ccc(OC)cc2)cc1		inconclusive: -30.6% [cytotoxic]
O=C(O)c1ccc(N=Nc2c(O)ccc3ncccc23)cc1	inconclusive: 20.6 µM [cytotoxic, single point]	
COc1ccc(OC)c(CCNC(=O)c2ccc3c(c2)N(Cc2ccc(F)cc2)CCS3)c1		inconclusive: -80.1%
CCCCNC(=O)C1C(c2ccc(OC)cc2)=Nc2ccccc2N1C(=O)c1cccnc1 (stereo not given)	inconclusive: 32.6 µM [rising, single point]	
CN(CC(=O)Nc1cccc(F)c1)CC(=O)Nc1cccc(S(=O)(=O)N2CCCCC2)c1		inactive: -10.8%
COc1ccc(C2=Nn3c(nnc3-c3ccc(OC)cc3)SC2)cc1	active: 0.651 µM	

Compound	Potency	activity change, negative = cytotoxic
CCOc1ccccc1N1CCN(C(=O)C2=CC=CN3CCS(=O)(=O)N=C23)CC1		inactive: -18.1%
CCOC(=O)c1nn(-c2ccccc2F)c(-c2ccccc2)c1C(=O)c1ccccc1	inconclusive: 20.6 µM [cytotoxic, partial curve, poor fit]	
O=c1c2cnn(-c3ccccc3)c2nc(-c2cccs2)n1-c1cccc(Cl)c1	inconclusive: 18.4 µM [cytotoxic, single point]	
CC(C)(C)n1nnnc1C(c1cccs1)N(Cc1ccccc1)Cc1cccnc1 (stereo not given)	inconclusive: 23.1 µM [cytotoxic, single point]	
CCc1sc(C(=O)Nc2ccc(N3CCOCC3)cc2)cc1C	inconclusive: 29.1 µM [cytotoxic, single point]	
Cc1ccc(NC(=O)c2nc(-c3ccncc3)no2)c(Cl)c1		inactive: 13.2%
O=C(Nc1ccc2[nH]c(=O)[nH]c2c1)c1ccc([N+](=O)[O-])o1	inconclusive: 23.1 µM [cytotoxic, partial curve, poor fit]	
Cc1ccc(NC(=O)CSc2nc(-c3ccco3)cc(C(F)(F)F)n2)cc1C	active: 4.11 µM and inconclusive: 2.59 µM [cytotoxic, partial curve, poor fit]	
CC(=O)Nc1cnc(/C=C\CCCO)cn1		inactive: 0%
NC(=S)NN=Cc1nccc2c(C(F)(F)C(F)(F)C(F)(F)F)cccc12	inconclusive: 3.26 µM [cytotoxic, partial curve, poor fit]	
COc1cc(/C=C/c2ccc3c([N+](=O)[O-])cccc3n2)ccc1OCC(=O)O	inconclusive: 29.1 µM [rising, single point]	
FC(F)(F)c1nnc2c(Sc3ccccc3)nc3ccccc3n12	active: 11.6 µM	
N/C(=N\c1nc(CSc2nc3ccccc3s2)cc(=O)[nH]1)Nc1ccc(F)cc1	active: 11.6 µM	
COc1cc2ncc3c(-c4ccccc4)nn(-c4ccc(C)cc4)c3c2cc1OC		inactive: -8.14%
Cc1ccc(CNc2ncnc3cc(Cl)ccc23)o1	inconclusive: 18.4 µM [cytotoxic, partial curve]	
N#CC(/C(=N/S(=O)(=O)c1cccs1)c1ccccc1)c1nc2ccccc2[nH]1 (stereo not given)	inconclusive: 23.1 µM [cytotoxic, partial curve, poor fit]	
CCOC(=O)C1=CCN(S(=O)(=O)c2ccc(F)cc2)C1c1cccc(Cl)c1 (stereo not given)	inconclusive: 29.1 µM [cytotoxic, single point]	
COc1cc(C(=O)NCCC(C)C)ccc1OCc1ccc(Cl)cc1Cl	inconclusive: 18.4 µM [cytotoxic, single point]	
Cc1ccc(OCC(=O)Nc2ccc3nc(SCC(=O)N(C)c4ccccc4)sc3c2)cc1		inactive: 1.03%
COc1ccccc1C(=O)OCC(=O)Nc1ccc(N2CCCCC2)cc1		inconclusive: 41.2%
COc1ccc(Cl)cc1NC(=O)Cn1cc(S(=O)(=O)Cc2cccc(Cl)c2)c2ccccc21	inconclusive: 23.1 µM [cytotoxic, single point]	
O=C(Nc1nc2ccccc2s1)C1CCN(S(=O)(=O)c2cc([N+](=O)[O-])ccc2Cl)CC1	active: 2.31 µM	

— PubChem BioAssay AID1347075 (National Center for Advancing Translational Sciences (NCATS), 2019)
